From PubChem BioAssay AID624291 (National Center for Advancing Translational Sciences (NCATS), 2012)
The campaign covered roughly 350,000 compounds. About 220 (0.063%) were called active. The shares of active, inactive and inconclusive entries below differ from those in the screen. The call rests on the fitted dose curve; in most records, active means well fitted activation curve with a large enough effect; inconclusive means small, poorly fitted or top-dose-only effect; inactive means no such curve, though single readings can be large or run the other way. Potencies beside an inconclusive call are fits to weak or partial responses and may not hold up.

assay: qHTS for Activators of Integrin-Mediated Alleviation for Muscular Dystrophy; conditions: alpha7betagal myoblasts, beta-gal FDG fluorescence, 48 h; activation: at 38.3 µM (top of the series); further: nearly all actives have a fitted effect of over 60% in size;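 on activation: 100% = response of the positive control SU9516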
In short: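 alpha7betagal+/- myoblasts (passage 13, 250/well) treated 48 h at 37C with compounds at 1:260 dilution of DMSO stock. Lysed, then beta-galactosidase activity read as FDG fluorescence (ex 480/em 540) after 30 min, with pre-read for autofluorescence.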
Potency means the concentration at half of the fitted maximal effect.

| Compound | Potency | activation |
| --- | --- | --- |
| O=C(NC1CCN(Cc2ccccc2)CC1)c1ccccc1OCc1ccccc1Cl | inconclusive: 1.41 µM [activator, partial curve, poor fit] | – |
| O=C(NCc1ccco1)C1CCN(S(=O)(=O)c2cccc([N+](=O)[O-])c2)CC1 | – | inconclusive: 16.3% [activator] |
| COc1ccccc1CNS(=O)(=O)c1csc(C(N)=O)c1 | inconclusive: 3.55 µM [activator, partial curve, poor fit] | – |
| O=C(NCc1cccs1)C1CC(=O)N(c2ccc(Cl)cc2)C1 (configuration not stated) | inconclusive: 12.6 µM [activator, single point] | – |
| CC(O)CNc1nc2ccccc2n1-c1ncnc2sc3c(c12)CCC3 (configuration not stated) | inconclusive: 3.55 µM [activator, partial curve, poor fit] | – |
| O=C(Nc1cccc(F)c1)Nc1ccnn1C1CCN(C(=O)c2cscn2)CC1 | inconclusive: 22.4 µM [activator, single point] | – |
| Nc1cc(C(=O)N2CCN(c3ccc([N+](=O)[O-])cc3)CC2)ccc1N1CC2CC(C1)c1cccc(=O)n1C2 (configuration not stated) | inconclusive: 28.2 µM [activator, single point] | – |
| CCC(Sc1nc2ccccc2o1)C(=O)Nc1nnc(C)s1 (configuration not stated) | inconclusive: 17.8 µM [activator, partial curve, poor fit] | – |
| Cc1cc(C)c(C(=O)CC(=O)c2ccccc2Cl)c(O)c1 | inactive | – |
| Cc1ccc(C)c(NC(=O)c2ccc3nccnc3c2)c1 | inconclusive: 14.1 µM [activator, single point] | – |
| COc1cc(/C(C)=N/NC(=O)CN2CCN(S(=O)(=O)c3ccc(C)cc3)CC2)ccc1O | inconclusive: 10 µM [activator, partial curve, poor fit] | – |
| COc1ccc(Nc2cc(Sc3ccc(OC)cc3)ncn2)cc1 | inconclusive: 1.12 µM [activator, partial curve, poor fit] | – |
| Cc1ccc(NC(=O)c2ccc(S(=O)(=O)NCc3cccnc3)cc2)c(C)c1 | inconclusive: 0.282 µM [activator, partial curve, poor fit] | – |
| Cc1cc(NCCC(C)C)n2nc(C)c(-c3ccccc3)c2n1 | inactive | – |
| Cc1ccc(CNC(=S)NC2CCCCC2)cc1 | inconclusive: 14.1 µM [activator, single point] | – |
| OC(CNCc1ccccc1Cl)C(F)(F)F (configuration not stated) | inconclusive: 2.24 µM [activator, full curve, poor fit] | – |
| CCCOc1ccc(C(=O)N/N=C/c2c[nH]c3ccc(Br)cc23)cc1 | inconclusive: 0.891 µM [activator, full curve, poor fit] | – |
| Nc1n[nH]c2cccc(Cl)c12 | inconclusive: 28.2 µM [activator, single point] | – |
| Cc1cc(C(F)(F)F)n2nc(-c3cnn(C)c3C(F)(F)F)c(Br)c2n1 | inconclusive: 2.82 µM [activator, single point] | – |
| Cc1ccc(CNC(=O)CCSCc2ccc(C)cc2)cc1 | inconclusive: 1.41 µM [activator, partial curve, poor fit] | – |
| CCc1cccc2c(C(=O)CSc3nncn3C)c[nH]c12 | inconclusive: 14.1 µM [activator, single point] | – |

3 compounds picked at random from the list so far:

| Compound | Potency | activation |
| --- | --- | --- |
| COc1ccccc1CNS(=O)(=O)c1csc(C(N)=O)c1 | inconclusive: 3.55 µM [activator, partial curve, poor fit] | – |
| COc1ccc(Nc2cc(Sc3ccc(OC)cc3)ncn2)cc1 | inconclusive: 1.12 µM [activator, partial curve, poor fit] | – |
| OC(CNCc1ccccc1Cl)C(F)(F)F (configuration not stated) | inconclusive: 2.24 µM [activator, full curve, poor fit] | – |

The listing continues:

| Compound | Potency | activation |
| --- | --- | --- |
| Cc1cc(C)n2nc(SCCOc3ccccc3F)nc2n1 | inactive | – |
| O=C(c1ccc2c(c1)OCO2)C1CCCN(Cc2cccc(C(F)(F)F)c2)C1 (configuration not stated) | inactive | – |
| Cc1ccc(C(=O)CN2C(=O)C(C)Oc3ccccc32)cc1 (configuration not stated) | inactive | – |
| CC(=O)Nc1ccc(/C=C/c2ccc3c([N+](=O)[O-])cccc3n2)cc1 | inconclusive: 28.2 µM [activator, single point] | – |
| O=C(NNC1=C(C(=O)C(F)(F)F)CCC1)c1cccc(Cl)c1 | inactive | – |
| Cc1c(OC(C)C(=O)NCc2ccccn2)ccc2c3c(c(=O)oc12)CCCC3 (configuration not stated) | inconclusive: 5.01 µM [activator, single point] | – |
| CCOC(=O)c1cnc(COc2ccccc2Cl)[nH]c1=O | inconclusive: 5.01 µM [activator, single point] | – |
| O=C(O)c1cc(N2C(=O)CCC2=O)ccc1NCc1cccnc1 | inconclusive: 28.2 µM [activator, single point] | – |
| CC(=O)Cn1nnc2sc(-c3ccccc3)cc2c1=O | inconclusive: 10 µM [activator, partial curve, poor fit] | – |
| Cc1cc(C(=O)N/N=C/c2c(C)[nH]n(-c3ccccc3)c2=O)n[nH]1 | inconclusive: 28.2 µM [activator, single point] | – |
| CCCCCCCC(=O)Nc1cc(C(=O)NCCC)ccc1N1CCC2(CC1)CC(c1ccccc1)=NO2 | inactive | – |
| COc1ccc(NC(=O)CCn2c(=O)c3cccn3c3ccccc32)cc1 | inconclusive: 5.01 µM [activator, single point] | – |
| COc1ccc(NC(=O)CSc2nc3c(c(=O)n(C)c(=O)n3C)n2C)c(OC)c1 | inconclusive: 10 µM [activator, single point] | – |
| CS(=O)c1ccccc1-c1nc(-c2ccc(Cl)cc2)no1 (configuration not stated) | inconclusive: 3.16 µM [activator, partial curve, poor fit] | – |
| Clc1cccc(-c2cc3nc4c(c(N5CCOCC5)n3n2)CCCC4)c1 | inconclusive: 10 µM [activator, partial curve, poor fit] | – |
| CCCCNC(=O)Nc1nnc(-c2ccc(Cl)cc2)o1 | inconclusive: 2.82 µM [activator, partial curve, poor fit] | – |
| O=C(NCc1ccc(F)cc1)C1CCN(S(=O)(=O)c2ccc(Cl)cc2)CC1 | inconclusive: 5.01 µM [activator, single point] | – |
| CCc1cc(C(=O)Nc2nnc(C3CC3)s2)sc1C | inconclusive: 28.2 µM [activator, single point] | – |
| Clc1ccc(-c2cccs2)nn1 | inconclusive: 5.01 µM [activator, single point] | – |
| CCOC(=O)c1cn(CC(=O)Nc2cccc(F)c2)nn1 | – | inconclusive: -18.2% [activator] |
| Cc1ccc(NC(=S)NCCN(C2CCCCC2)C2CCCC2)cc1 | inactive | – |
